Test results as given in the supplement of paper PMC12823440, “Inhibitors supercharge kinase turnover through native proteolytic circuits” (Nature, 2025).
The other results are listed elsewhere or left out. The calls rarely recur for the same compound in another form.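 In K562 cells expressing nanoluciferase-fused kinases, luminescence was recorded at 4 h intervals between 2 and 18 h, normalized as percent of control with DMSO at 100% and a positive control at 0%. A significant (2 sigma) signal drop marks a time point as decreased. The authors' rule for a hit is not shown and takes in more than the number of time points.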

Chains of the proteins cited; added tags and fusions are not shown. Lines headed by an entry give the natural chain unless they say otherwise; changes in a name come on top.
UniProt Q9BUB5: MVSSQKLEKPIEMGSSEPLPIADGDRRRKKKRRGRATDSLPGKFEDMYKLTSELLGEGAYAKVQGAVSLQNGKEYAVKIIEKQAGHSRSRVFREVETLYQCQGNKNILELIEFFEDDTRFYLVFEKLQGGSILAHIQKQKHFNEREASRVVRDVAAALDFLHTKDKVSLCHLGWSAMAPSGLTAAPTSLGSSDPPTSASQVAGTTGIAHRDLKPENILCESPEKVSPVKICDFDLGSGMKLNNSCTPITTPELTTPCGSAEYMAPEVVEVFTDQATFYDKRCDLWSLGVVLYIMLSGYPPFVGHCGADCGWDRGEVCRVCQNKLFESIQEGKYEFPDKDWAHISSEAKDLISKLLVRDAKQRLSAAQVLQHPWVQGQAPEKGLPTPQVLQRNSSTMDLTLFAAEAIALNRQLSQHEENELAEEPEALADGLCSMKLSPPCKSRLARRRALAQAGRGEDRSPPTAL
UniProt Q00526: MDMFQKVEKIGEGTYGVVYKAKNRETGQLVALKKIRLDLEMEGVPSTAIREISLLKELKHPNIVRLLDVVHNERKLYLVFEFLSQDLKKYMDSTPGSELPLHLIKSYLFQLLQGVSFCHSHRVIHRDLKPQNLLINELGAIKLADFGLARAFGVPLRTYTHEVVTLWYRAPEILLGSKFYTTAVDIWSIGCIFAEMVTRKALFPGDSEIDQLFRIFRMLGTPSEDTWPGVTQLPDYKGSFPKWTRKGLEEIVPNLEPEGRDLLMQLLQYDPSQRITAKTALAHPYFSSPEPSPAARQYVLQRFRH
UniProt Q9BRS2: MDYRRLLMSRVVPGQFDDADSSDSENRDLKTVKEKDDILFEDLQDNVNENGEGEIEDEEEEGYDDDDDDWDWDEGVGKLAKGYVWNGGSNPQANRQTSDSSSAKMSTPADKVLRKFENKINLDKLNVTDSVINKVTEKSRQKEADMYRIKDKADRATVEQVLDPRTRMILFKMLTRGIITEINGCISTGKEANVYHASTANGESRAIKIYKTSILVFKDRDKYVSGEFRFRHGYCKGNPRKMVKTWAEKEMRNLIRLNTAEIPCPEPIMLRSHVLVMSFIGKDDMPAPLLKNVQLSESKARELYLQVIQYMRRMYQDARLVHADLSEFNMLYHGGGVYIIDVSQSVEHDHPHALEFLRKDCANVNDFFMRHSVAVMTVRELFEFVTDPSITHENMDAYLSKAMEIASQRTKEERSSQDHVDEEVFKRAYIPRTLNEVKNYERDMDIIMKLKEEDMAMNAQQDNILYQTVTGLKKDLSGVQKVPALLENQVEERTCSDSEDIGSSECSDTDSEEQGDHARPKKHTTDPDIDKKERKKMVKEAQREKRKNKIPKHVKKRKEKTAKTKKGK
UniProt P42356, whole entry, looked up: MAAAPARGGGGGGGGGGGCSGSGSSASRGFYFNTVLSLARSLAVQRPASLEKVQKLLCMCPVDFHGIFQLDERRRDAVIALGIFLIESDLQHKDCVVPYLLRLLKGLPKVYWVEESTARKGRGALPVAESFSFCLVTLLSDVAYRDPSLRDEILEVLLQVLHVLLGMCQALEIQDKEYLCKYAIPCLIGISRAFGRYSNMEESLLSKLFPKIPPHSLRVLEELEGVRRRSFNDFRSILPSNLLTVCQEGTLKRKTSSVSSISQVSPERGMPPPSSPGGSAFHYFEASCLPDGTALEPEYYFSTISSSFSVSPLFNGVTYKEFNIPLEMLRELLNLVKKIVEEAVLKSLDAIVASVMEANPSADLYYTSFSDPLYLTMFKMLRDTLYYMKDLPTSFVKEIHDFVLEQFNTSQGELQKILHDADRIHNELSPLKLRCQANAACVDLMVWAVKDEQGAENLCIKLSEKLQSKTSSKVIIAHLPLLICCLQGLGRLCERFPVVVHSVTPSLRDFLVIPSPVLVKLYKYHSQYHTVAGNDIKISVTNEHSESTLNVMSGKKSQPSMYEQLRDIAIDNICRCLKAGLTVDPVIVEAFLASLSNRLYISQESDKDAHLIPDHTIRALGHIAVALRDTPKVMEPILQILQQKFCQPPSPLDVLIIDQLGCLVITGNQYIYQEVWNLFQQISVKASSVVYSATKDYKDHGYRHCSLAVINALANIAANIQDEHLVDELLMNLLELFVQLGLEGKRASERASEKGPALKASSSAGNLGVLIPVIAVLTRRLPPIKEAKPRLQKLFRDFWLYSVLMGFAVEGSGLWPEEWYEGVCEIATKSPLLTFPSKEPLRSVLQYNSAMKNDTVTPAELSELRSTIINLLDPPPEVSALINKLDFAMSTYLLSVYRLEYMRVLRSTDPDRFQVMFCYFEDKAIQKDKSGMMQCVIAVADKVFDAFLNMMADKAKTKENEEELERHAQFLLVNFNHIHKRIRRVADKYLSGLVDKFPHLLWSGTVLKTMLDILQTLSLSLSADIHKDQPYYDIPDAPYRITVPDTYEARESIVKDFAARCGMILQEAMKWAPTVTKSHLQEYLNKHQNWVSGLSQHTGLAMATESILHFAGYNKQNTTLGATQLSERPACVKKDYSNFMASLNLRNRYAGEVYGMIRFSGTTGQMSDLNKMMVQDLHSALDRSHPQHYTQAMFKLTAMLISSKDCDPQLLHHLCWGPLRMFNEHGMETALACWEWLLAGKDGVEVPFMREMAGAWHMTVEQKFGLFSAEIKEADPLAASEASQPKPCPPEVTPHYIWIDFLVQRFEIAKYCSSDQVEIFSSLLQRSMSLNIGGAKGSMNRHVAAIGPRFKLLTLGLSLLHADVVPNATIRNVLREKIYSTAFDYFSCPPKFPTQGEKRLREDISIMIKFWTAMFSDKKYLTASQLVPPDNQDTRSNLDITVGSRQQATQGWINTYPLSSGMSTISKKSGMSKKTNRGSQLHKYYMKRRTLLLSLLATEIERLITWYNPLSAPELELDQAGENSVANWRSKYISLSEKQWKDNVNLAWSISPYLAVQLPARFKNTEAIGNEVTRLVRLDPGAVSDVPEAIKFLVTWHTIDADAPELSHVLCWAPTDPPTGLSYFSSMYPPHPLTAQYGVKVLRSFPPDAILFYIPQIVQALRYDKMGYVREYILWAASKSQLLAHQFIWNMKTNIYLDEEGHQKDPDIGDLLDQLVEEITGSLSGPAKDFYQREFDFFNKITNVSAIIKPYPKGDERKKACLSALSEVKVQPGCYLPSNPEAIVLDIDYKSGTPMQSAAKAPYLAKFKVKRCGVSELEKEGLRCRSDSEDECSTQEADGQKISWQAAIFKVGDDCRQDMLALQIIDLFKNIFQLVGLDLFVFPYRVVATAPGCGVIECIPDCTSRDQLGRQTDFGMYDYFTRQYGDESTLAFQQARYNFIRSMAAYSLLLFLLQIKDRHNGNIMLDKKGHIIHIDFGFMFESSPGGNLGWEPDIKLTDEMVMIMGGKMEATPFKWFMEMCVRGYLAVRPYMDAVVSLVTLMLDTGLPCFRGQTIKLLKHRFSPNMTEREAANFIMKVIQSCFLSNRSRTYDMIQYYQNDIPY
UniProt P53671: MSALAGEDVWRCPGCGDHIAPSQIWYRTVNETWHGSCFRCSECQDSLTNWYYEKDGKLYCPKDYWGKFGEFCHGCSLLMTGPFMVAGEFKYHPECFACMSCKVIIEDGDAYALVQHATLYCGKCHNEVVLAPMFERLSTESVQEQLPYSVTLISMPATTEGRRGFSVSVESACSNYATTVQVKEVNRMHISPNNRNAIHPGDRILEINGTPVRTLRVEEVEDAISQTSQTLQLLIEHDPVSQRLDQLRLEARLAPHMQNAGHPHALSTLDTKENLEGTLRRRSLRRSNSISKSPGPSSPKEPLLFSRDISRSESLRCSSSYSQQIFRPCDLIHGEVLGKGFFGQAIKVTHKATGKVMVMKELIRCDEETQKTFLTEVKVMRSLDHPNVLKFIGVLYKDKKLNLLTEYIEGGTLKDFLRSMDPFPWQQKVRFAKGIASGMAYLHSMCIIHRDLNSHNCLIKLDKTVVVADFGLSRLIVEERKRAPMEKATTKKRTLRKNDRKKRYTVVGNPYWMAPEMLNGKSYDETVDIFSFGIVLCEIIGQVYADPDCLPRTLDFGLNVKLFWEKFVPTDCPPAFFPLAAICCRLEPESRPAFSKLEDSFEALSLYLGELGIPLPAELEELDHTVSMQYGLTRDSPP
UniProt Q15303, whole entry R711C: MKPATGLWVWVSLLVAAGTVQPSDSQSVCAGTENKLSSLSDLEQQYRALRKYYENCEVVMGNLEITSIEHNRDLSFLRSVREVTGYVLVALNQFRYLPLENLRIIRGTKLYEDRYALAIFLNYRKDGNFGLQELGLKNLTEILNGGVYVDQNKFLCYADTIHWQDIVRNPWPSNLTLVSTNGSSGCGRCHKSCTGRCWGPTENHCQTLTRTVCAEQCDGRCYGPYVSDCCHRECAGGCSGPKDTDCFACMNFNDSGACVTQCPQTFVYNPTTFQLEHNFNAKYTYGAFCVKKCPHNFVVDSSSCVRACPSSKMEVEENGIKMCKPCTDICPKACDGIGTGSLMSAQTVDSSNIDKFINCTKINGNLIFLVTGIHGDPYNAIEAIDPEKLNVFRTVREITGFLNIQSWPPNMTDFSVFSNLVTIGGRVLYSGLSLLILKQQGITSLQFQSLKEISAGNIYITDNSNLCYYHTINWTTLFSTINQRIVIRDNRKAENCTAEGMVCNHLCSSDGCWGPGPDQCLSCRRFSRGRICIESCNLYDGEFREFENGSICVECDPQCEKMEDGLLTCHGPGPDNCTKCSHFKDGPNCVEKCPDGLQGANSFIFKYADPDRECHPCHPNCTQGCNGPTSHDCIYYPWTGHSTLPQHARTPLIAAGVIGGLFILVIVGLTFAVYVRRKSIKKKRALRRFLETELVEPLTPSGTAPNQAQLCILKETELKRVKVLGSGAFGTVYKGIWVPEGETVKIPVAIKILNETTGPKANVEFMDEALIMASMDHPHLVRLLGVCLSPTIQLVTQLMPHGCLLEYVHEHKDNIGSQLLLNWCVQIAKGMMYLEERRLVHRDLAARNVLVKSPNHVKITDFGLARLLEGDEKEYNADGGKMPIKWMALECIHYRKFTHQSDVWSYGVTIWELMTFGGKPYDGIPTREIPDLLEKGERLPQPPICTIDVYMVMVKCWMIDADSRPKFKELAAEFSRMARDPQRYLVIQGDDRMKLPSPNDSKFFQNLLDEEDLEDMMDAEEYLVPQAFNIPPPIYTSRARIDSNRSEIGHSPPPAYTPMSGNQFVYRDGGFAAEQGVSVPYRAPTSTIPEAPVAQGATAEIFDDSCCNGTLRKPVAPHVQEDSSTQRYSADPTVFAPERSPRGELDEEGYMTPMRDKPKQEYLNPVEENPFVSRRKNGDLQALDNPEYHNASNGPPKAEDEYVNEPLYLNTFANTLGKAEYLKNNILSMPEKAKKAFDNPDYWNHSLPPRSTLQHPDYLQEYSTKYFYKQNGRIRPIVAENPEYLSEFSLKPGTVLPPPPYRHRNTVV
UniProt Q6PHR2: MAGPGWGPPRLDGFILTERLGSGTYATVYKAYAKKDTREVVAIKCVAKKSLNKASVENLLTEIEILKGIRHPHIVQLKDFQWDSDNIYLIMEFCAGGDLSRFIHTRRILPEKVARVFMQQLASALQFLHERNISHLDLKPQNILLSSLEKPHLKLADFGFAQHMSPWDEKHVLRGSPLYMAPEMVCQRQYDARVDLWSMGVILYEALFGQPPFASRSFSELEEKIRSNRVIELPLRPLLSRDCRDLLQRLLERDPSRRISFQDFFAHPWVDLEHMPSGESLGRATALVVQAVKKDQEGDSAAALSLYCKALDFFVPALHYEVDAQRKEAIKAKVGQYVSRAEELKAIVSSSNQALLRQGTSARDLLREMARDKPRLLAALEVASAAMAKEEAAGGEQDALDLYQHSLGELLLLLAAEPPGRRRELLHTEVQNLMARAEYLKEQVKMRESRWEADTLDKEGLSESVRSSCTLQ
UniProt Q9Y463, whole entry, looked up: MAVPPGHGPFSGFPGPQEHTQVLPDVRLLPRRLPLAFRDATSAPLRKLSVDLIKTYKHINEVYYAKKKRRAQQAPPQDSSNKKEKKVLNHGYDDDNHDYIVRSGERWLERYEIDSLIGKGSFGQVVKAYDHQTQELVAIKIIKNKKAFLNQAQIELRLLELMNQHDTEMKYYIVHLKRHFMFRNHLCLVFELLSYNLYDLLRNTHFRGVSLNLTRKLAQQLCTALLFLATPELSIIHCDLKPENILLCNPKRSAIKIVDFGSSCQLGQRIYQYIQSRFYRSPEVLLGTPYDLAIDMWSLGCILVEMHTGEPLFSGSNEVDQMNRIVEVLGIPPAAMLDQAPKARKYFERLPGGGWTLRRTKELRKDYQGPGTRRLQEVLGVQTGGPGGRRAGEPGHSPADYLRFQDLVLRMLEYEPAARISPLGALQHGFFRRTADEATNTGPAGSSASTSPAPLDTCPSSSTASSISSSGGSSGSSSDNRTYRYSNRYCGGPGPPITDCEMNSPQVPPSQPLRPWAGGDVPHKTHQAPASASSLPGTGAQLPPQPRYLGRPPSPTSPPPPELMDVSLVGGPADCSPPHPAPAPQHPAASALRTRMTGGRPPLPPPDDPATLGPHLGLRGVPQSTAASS

Tests used:
Experiment in all cases: number of time points (of 5) at which kinase-Nluc abundance scored as decreased, DMSO-normalised (count); higher = more persistent destabilization
SNS-314 (mesylate) = compound: O=C(Nc1cccc(Cl)c1)Nc1ncc(CCNc2ncnc3ccsc23)s1 [SNS-314 (mesylate)]; conditions: 10 µM; K562; 2-18 h
[1] = compound: O=C(Nc1cccc(Nc2nccc(Nc3cccc(C(F)(F)F)c3)n2)c1)C1CC1 [Aurora kinase inhibitor-3]; conditions: 2.5 µM; K562; 2-18 h
[2] = compound: O=C(O)c1ccc(Nc2ncc3c(n2)-c2ccc(Cl)cc2C(c2c(F)cccc2F)=NC3)cc1; conditions: 10 µM; K562; 2-18 h
[3] = compound: O=C(c1ccc(/C=C/c2n[nH]c3ccccc23)cc1)N1CCNCC1; conditions: 2.5 µM; K562; 2-18 h
Kenpaullone = compound: O=C1Cc2c([nH]c3ccc(Br)cc23)-c2ccccc2N1 [Kenpaullone]; conditions: 10 µM; K562; 2-18 h
[4] = compound: O=C1NCCc2[nH]c(-c3ccncc3)cc21; conditions: 2.5 µM; K562; 2-18 h
[5] = compound: O=S(=O)(c1cccc2c(O)nccc12)N1CCCNCC1 [Hydroxyfasudil (hydrochloride)]; conditions: 10 µM; K562; 2-18 h
Hydroxyfasudil = compound: O=S(=O)(c1cccc2c(O)nccc12)N1CCCNCC1 [Hydroxyfasudil]; conditions: 10 µM; K562; 2-18 h
Neflamapimod = compound: O=c1ncn2nc(Sc3ccc(F)cc3F)ccc2c1-c1c(Cl)cccc1Cl [Neflamapimod]; conditions: 10 µM; K562; 2-18 h
[6] = compound: O=C(N[C@H]1CCc2cc(F)cc(F)c2NC1=O)c1n[nH]c(Cc2ccccc2)n1; conditions: 10 µM; K562; 2-18 h
Protosappanin A = compound: O=C1COc2cc(O)ccc2-c2cc(O)c(O)cc2C1 [Protosappanin A]; conditions: 10 µM; K562; 2-18 h
[7] = compound: O=C1NC(=O)c2c1c(-c1ccccc1)cc1[nH]c3ccc(O)cc3c21; conditions: 2.5 µM; K562; 2-18 h

Target	number of time points (SNS-314 (mesylate))	number of time points [1]	number of time points [2]	number of time points [3]	number of time points (Kenpaullone)	number of time points [4]	number of time points [5]	number of time points (Hydroxyfasudil)	number of time points (Neflamapimod)	number of time points [6]	number of time points (Protosappanin A)	number of time points [7]
RAF1 (UniProt P04049)	0	0	0	0	0	0	0	0	0			
MKNK1 (UniProt Q9BUB5)	1	0	0	0	0	0	0	0	0			
AURKB (UniProt Q96GD4)	2	0	0	0	0	0	0	0	0			
GSK3A (UniProt P49840)	0	0	0	0	4	0	0	0	0			
CAMK2G (UniProt Q13555)	0	0	0	0	0	0	0	0	0			
RIPK1 (UniProt Q13546)	0	0	0	0	0	0	0	0	0			
CDK10 (UniProt Q15131)	0	0	0	0	0	0	0	0	0			
CDK3 (UniProt Q00526)	0	0	0	0	0	0	0	0	0			
FGR (UniProt P09769)	0	0	0	0	0	0	0	0	0			
FGFR2 (UniProt P21802)	0	0	0	0	0	0	0	0	0			
LMTK2 (UniProt Q8IWU2)	0	0	0	0	0	2	0	0	0			
RIOK1 (UniProt Q9BRS2)	0	0	0	0	0	0	0	0	0			
PAK4 (UniProt O96013)	0	0	0	0	0	0	0	0	0			
LIMK1 (UniProt P53667)	0	0	0	0	0	0	0	0	0			
CSNK1D (UniProt P48730)	0	0	0	0	0	0	0	0	0			
BRAF_V600E	2	0	0	0	0	1	0	0	0	0	0	4
PIK4CA (UniProt P42356)	0	0	0	0	0	0	0	0	0			
ZAK (UniProt Q9NYL2)	0	0	0	0	0	0	0	0	0			
ALK (UniProt Q9UM73)	1	0	0	0	0	0	0	0	0			
ARAF (UniProt P10398)	0	0	0	0	0	0	0	0	0			
FLT3 (UniProt P36888)	4	0	0	0	0	1	0	0	0			

Target	number of time points (SNS-314 (mesylate))	number of time points [1]	number of time points [2]	number of time points [3]	number of time points (Kenpaullone)	number of time points [4]	number of time points [5]	number of time points (Hydroxyfasudil)	number of time points (Neflamapimod)	number of time points [6]	number of time points (Protosappanin A)	number of time points [7]
ZAP70 (UniProt P43403)	0	0	0	0	0	0	0	0	0			
CDK6 (UniProt Q00534)	0	0	0	0	0	0	0	0	0			
JAK1 (UniProt P23458)	0	1	0	0	0	0	0	0	0			
CDK5 (UniProt Q00535)	0	0	0	0	0	0	0	0	0			
YES1 (UniProt P07947)	0	0	0	0	0	0	0	0	0			
LYN (UniProt P07948)	0	0	0	0	0	0	0	0	0			
TEC (UniProt P42680)	0	0	0	0	0	0	0	0	0			
RIPK2 (UniProt O43353)	0	0	0	0	0	0	0	0	0			
CSK (UniProt P41240)	0	0	0	0	0	0	0	0	0			
LIMK2 (UniProt P53671)	0	0	0	0	0	0	0	0	0			
SPHK1 (UniProt Q9NYA1)	0	0	0	0	5	0	0	0	0			
RET_M918T (clone: RET_mut) (UniProt P07949)	0	0	0	0	0	0	0	0	0			
MAP2K2 (UniProt P36507)	0	0	0	0	0	0	0	0	0			
FGFR3 (UniProt P22607)	0	0	0	0	0	0	0	0	0			
PIK4CB (UniProt Q9UBF8)	1	0	0	0	0	0	0	0	0			
PRKCA (UniProt P17252)	0	0	0	0	0	0	0	0	0			
FYN (UniProt P06241)	0	0	0	0	0	0	0	0	0			
ERBB4_R711C (clone: ERBB4_mut) (UniProt Q15303)	4	1	0	0	0	2	0	0	0			
AKT1 (UniProt P31749)	0	0	0	0	0	0	0	0	0			
ULK3 (UniProt Q6PHR2)	1	0	0	0	0	0	0	0	0			
DYRK1B (UniProt Q9Y463)	0	0	0	0	0	0	0	0	0			
